The values below come from patent US20250144230A1 (Orum Therapeutics, Inc., priority 2021, published 2025).

The nature of data set [1]: general procedure: solution-phase peptide synthesis; HATU, HOBT, DIEA.
Data set [2] in a line: Cysteine digestion, in vitro payload release.

In the case of “[(2S)-2-(2-[2-[6-(2,5-dioxopyrrol-1-yl)hexanamido]acetamido]acetamido)-3-phenylpropanamido]acetic acid”, the step yield in data set [1] (late stage modification step) was found to be 68%.

In turn, “[(2S)-2-[2-(2-aminoacetamido)acetamido]-3-phenylpropanamido]acetic acid hydrochloride” came in with a step yield in data set [1] (late stage modification step, hydrochloride) of 93%.

With “[(2S)-2-(2-[2-[(tert-butoxycarbonyl)amino]acetamido]acetamido)-3-phenylpropanamido]acetic acid”, the step yield in data set [1] (coupling step) was 15%.

Consider `CNCCOCCc1ccc(NC(=O)NCc2ccc3c(c2)CN(C2CCC(=O)N(CN(C)S(=O)(=O)c4ccc(C(=O)NCCN5C(=O)C=CC5=O)cc4[N+](=O)[O-])C2=O)C3=O)cc1Cl.O=C(O)C(F)(F)F` (stereo not shown) [Compound (XIX), 4-[({3-[5-({[(3-chloro-4-{2-[2-(methylamino)ethoxy]ethyl}phenyl)carbamoyl]amino}methyl)-1-oxo-3H-isoindol-2-yl]-2,6-dioxopiperidin-1-yl}methyl)(methyl)sulfamoyl]-N-[2-(2,5-dioxopyrrol-1-yl)ethyl]-3-nitrobenzamide; trifluoroacetic acid], for which the “% Payload Released” value in data set [2] (1 mM compound, 10 molar equivalents L-cysteine, PBS pH 7.4 + 20% DMA, 37° C., 24 hours) is on record as “sole product”. Moreover, the “consumption of parent compound on cysteine treatment (HPLC)” value in data set [2] (10 molar equivalents L-cysteine, 37° C., 24 hours) is listed as “completely consumed”. Moreover, the “yield of desired payload released by cysteine (in words)” value in data set [2] (cysteine treatment) is reported as “excellent yield”.

Take “N-{[({[(1S)-1-({[({3-[5-({[(3-chloro-4-{2-[2-(methylamino)ethoxy]ethyl}phenyl)carbamoyl]amino}methyl)-1-oxo-3H-isoindol-2-yl]-2,6-dioxopiperidin-1-yl}methyl)carbamoyl]methyl}carbamoyl)-2-phenylethyl]carbamoyl}methyl)carbamoyl]methyl}”: the step yield in data set [1] (late stage modification step) worked out at 17%.
